From the supplement of paper PMC5355238
Values joined by “and” are separate entries in the source; they are usually repeats but may differ in a detail not shown here. Equal values may be shown once. Where a name gives a salt, the structure may show the parent alone. The list shows a part of the results. Most values come without repeats; read them as rough.

tested on: Reh; assay: S-phase gammaH2AX median, Z-score vs plate median (drug alone); higher = more S-phase DNA damage; conditions: MK1775 concentration 0 nM; 10 µM; 4 h

| Structure (SMILES) | S-phase gammaH2AX median (Z-score) |
| --- | --- |
| CC(/C=C/c1cccc(Oc2ccc(F)cc2)c1)N(O)C(N)=O (stereo not given) | -0.0641 |
| O=c1c(O)c(-c2ccc(O)cc2O)oc2cc(O)cc(O)c12 [Morin] | -0.0733 |
| CC(=O)Nc1nc(C)c(-c2ccc(Cl)c(S(=O)(=O)NCCO)c2)s1 | -0.0785 |
| Cc1ccc([N+](=O)[O-])cc1S(=O)(=O)N(C)C | -0.103 |
| CC(C)C[C@H](NP(=O)(O)O[C@H]1O[C@H](C)[C@@H](O)[C@H](O)[C@@H]1O)C(=O)N[C@@H](Cc1c[nH]c2ccccc12)C(=O)O [Phosphoramidon disodium] | -0.0378 |
| Oc1ccc([C@@H]2CNCc3sccc32)cc1O | -0.0334 |
| COc1ccc(CCN(C)CCCC(C#N)(c2cc(OC)c(OC)c(OC)c2)C(C)C)cc1OC (stereo not given) [(?)-Methoxyverapamil hydrochloride] | -0.0639 |
| CC[C@H](C)C(=O)O[C@H]1CCC=C2C=C[C@H](C)[C@H](CC[C@@H]3C[C@@H](O)CC(=O)O3)[C@H]21 [Mevastatin] | 0.0284 |
| NNc1nncc2ccccc12 [Hydralazine hydrochloride] | 0.0346 |
| C=CC(=O)Nc1cccc(Oc2nc(Nc3ccc(N4CCN(C)CC4)cc3OC)ncc2Cl)c1 | -0.132 |
| O=C(/C=C/c1ccc(O)c(O)c1)OCCc1ccccc1 [Caffeic acid phenethyl ester] | 0.0524 |
| CCn1cc(C(=O)O)c(=O)c2ccc(Cc3ccccc3)nc21 [Amfonelic acid] | -0.18 |
| Cc1c(C)c2c(c(C)c1O)CCC(C)(CN1CCN(c3cc(N4CCCC4)nc(N4CCCC4)n3)CC1)O2 (stereo not given) | 0 |
| CN1CCN(CCCN2c3ccccc3Sc3ccc(Cl)cc32)CC1 [Prochlorperazine dimaleate] | -0.156 |
| CN(C)C[C@@H]1CCn2cc(c3ccccc32)C2=C(C(=O)NC2=O)c2cn(c3ccccc23)CCO1 | 0.00657 |
| CC(=O)[C@]1(O)Cc2c(O)c3c(c(O)c2[C@@H](O[C@H]2C[C@H](N)[C@H](O)[C@H](C)O2)C1)C(=O)c1ccccc1C3=O [Idarubicin HCl] | -0.195 |
| CC(=O)[C@]1(O)Cc2c(O)c3c(c(O)c2[C@@H](O[C@H]2C[C@H](N)[C@H](O)[C@H](C)O2)C1)C(=O)c1ccccc1C3=O [Idarubicin] | 8.98 |
| CS(=O)(=O)N1CCc2c(-c3cnc(N)nc3)nc(N3CCOCC3)nc21 | -0.125 |
| Cn1ccc2cc(NC(=O)Nc3cccnc3)ccc21 | 0.00388 |
| COCC[n+]1c2c(n(Cc3cnccn3)c1C)C(=O)c1ccccc1C2=O | 2.71 |
| Nc1ncnc2c1c(-c1ccc(Oc3ccccc3)cc1)cn2C1CCCC1 | -0.142 |
| C[C@@H]1CCN(C(=O)CC#N)C[C@@H]1N(C)c1ncnc2[nH]ccc12 | 0.194 and 0.0669 |

| Structure (SMILES) | S-phase gammaH2AX median (Z-score) |
| --- | --- |
| COc1cc2c(cc1C(F)(F)F)N(C(=O)Nc1cc(F)cc(-c3cccnc3)c1)CC2 | -0.0504 |
| CCC(C)N(C)C(=O)c1cc2ccccc2c(-c2ccccc2Cl)n1 (stereo not given) | -0.0194 |
| Nc1nc2ccc(Cl)cc2c2nc(-c3ccco3)nn12 | 0.28 |
| NCCCCCCCCCCN [1,10-Diaminodecane] | 0.0409 |
| OCCN1CCN(CCCN2c3ccccc3Sc3ccc(Cl)cc32)CC1 [Perphenazine] | -0.21 |
| COC1=CC(c2cc3ccccc3[nH]2)=N/C1=C\c1[nH]c(C)cc1C [Obatoclax mesylate (GX15-070)] | 1.2 |
| O=c1oc(Cl)c(Cl)c2ccccc12 [3,4-Dichloroisocoumarin] | -0.0598 |
| COc1cc(OC)c(C=C2C(=O)Nc3ccccc32)c(OC)c1 | -0.0615 |
| CN(NC(=O)CC(=O)NN(C)C(=S)c1ccccc1)C(=S)c1ccccc1 [Elesclomol] | 2.03 |
| CCN(CC)CC#CCOC(=O)C(O)(c1ccccc1)C1CCCCC1 (stereo not given) [Oxybutynin Chloride] | 0.0544 |
| O=C(NCCNCC(O)COc1ccc(O)cc1)N1CCOCC1 (stereo not given) [Xamoterol hemifumarate] | 0.04 |
| N=C(N)c1ccccc1 [Benzamidine hydrochloride] | 0.0738 |
| CCN(Cc1ccncc1)C(=O)C(CO)c1ccccc1 (stereo not given) [Tropicamide] | 0.0133 |
| COc1ccc(C(=O)NCc2cccnc2)cc1C(=O)NCc1cccnc1 [Picotamide] | 0.175 |
| O=Nc1c(-c2c(O)[nH]c3ccccc23)[nH]c2ccccc12 [Indirubin-3'-oxime] | -0.28 |
| COc1ccc2[nH]cc(CCNC(C)=O)c2c1 [Melatonin] | -0.0568 |
| CCCCC/C=C\C[C@@H](O)/C=C/c1cccc(C[C@@H](O)CCCCO)n1 | -0.601 |
| C=CC[C@@H]1/C=C(\C)C[C@H](C)C[C@H](OC)[C@H]2O[C@@](O)(C(=O)C(=O)N3CCCC[C@H]3C(=O)O[C@H](/C(C)=C/[C@@H]3CC[C@@H](O)[C@H](OC)C3)[C@H](C)[C@@H](O)CC1=O)[C@H](C)C[C@@H]2OC [FK-506 (Tacrolimus)] | -0.0824 |
| COc1nc(C)nc(Cl)c1NC1=NCCN1 [Moxonidine hydrochloride] | 0.0237 |
| COc1cc2nc(N3CCN(C(=O)c4ccco4)CC3)nc(N)c2cc1OC [Prazosin hydrochloride] | 0.156 |
| NCCS(=O)(=O)O [Taurine] | 0.147 |
| N#CC(C#N)=C(N)/C(C#N)=C/c1ccc(O)cc1 [Tyrphostin AG 112] | 0.147 |

| Structure (SMILES) | S-phase gammaH2AX median (Z-score) |
| --- | --- |
| O=c1c(O)c(-c2cc(O)c(O)c(O)c2)oc2cc(O)cc(O)c12 [Myricetin] | 0.0639 |
| Cc1cccc(/C=C/c2ccccc2)n1 | -0.42 |
| CCn1cc(C(=O)O)c(=O)c2ccc(C)nc21 [Nalidixic acid sodium] | 0.00946 |
| C#CCN(C)Cc1ccccc1 [Pargyline hydrochloride] | 0.267 |
| O=c1[nH]c2ccccc2c2ccccc12 [6(5H)-Phenanthridinone] | 0.464 |
| CCN(CC)CCNC(=O)c1cc(S(C)(=O)=O)ccc1OC [Tiapride hydrochloride] | 0.501 |
| O=C(CCCN1CC=C(n2c(=O)[nH]c3ccccc32)CC1)c1ccc(F)cc1 [Droperidol] | -0.0724 |
| N=C(N)SCCc1cccc(CCSC(=N)N)c1 [1,3-PBIT dihydrobromide] | 0.0828 |
| O=c1cc(-c2ccc(O)cc2)oc2cc(O)cc(O)c12 [Apigenin] | 0.00777 |
| N=C1Sc2ccccc2C2=NCCCN12 | -0.0118 |
| CN(C)CCN(Cc1cccs1)c1ccccn1 [Methapyrilene hydrochloride] | 0.151 |
| NC(=O)N1c2ccccc2C=Cc2ccccc21 [Carbamazepine] | -0.00971 |
| CCc1cccc(N(C)C(=N)Nc2cccc3ccccc23)c1 | 0.0155 |
| Nc1nc(F)nc2c1ncn2[C@@H]1O[C@H](CO)[C@@H](O)[C@@H]1O [Fludarabine (Fludara)] | 3.83 |
| O=C(NCCS(=O)(=O)c1ccc(C(F)(F)F)cn1)c1ccc(Cl)cc1 | 0.101 |
| CC(C)CC(=O)Nc1n[nH]c2c1CN(C(=O)C1CCN(C)CC1)C2(C)C | -0.123 |
| Nc1nc(Cl)nc2c1ncn2[C@@H]1O[C@H](CO)[C@@H](O)[C@@H]1F [Clofarabine] | 6.75 |
| CC(N)=O [Acetamide] | 0.0563 |
| CN1CC[C@H](c2c(O)cc(O)c3c(=O)cc(-c4ccccc4Cl)oc23)[C@H](O)C1 [Flavopiridol hydrochloride] | 0.012 |
| CN(C)Cc1c(C(=O)NCCOc2ccc(C(=O)NO)cc2)oc2ccccc12 | 0.101 |
| O=C1CN2Cc3c(ccc(Cl)c3Cl)N=C2N1 [Anagrelide] | -0.00271 |
| O=C1CN2Cc3c(ccc(Cl)c3Cl)N=C2N1 [Anagrelide hydrochloride] | -0.0684 |

| Structure (SMILES) | S-phase gammaH2AX median (Z-score) |
| --- | --- |
| FC(F)(F)c1ccccc1-n1ccnc1 [1-[2-(Trifluoromethyl)phenyl]imidazole] | -0.447 |
| CCCCOC(=O)NS(=O)(=O)c1sc(CC(C)C)cc1-c1ccc(Cn2c(CC)nc3c(C)cc(C)nc32)cc1 | -0.205 |
| CO/N=C(\C(=O)N[C@@H]1C(=O)N2C(C(=O)O)=C(CSc3nc(=O)c(O)nn3C)CS[C@H]12)c1csc(N)n1 [Ceftriaxone sodium] | 0.068 |
| CCCCN1CCC(COC(=O)c2cc(Cl)c(N)c3c2OCCO3)CC1 | 0.0133 |
| COc1cccc(NC(=O)/C=C/c2ccc(Cl)cc2)c1 | 0 |
| Oc1ccccc1O [Pyrocatechol] | -0.126 |
| CC(C)(C)NC[C@H](O)COc1nsnc1N1CCOCC1 [S(-)-Timolol maleate] | 0.0868 |
| C[C@]12CCC(=O)C=C1CC[C@@H]1[C@@H]2[C@@H](O)C[C@@]2(C)[C@H]1CC[C@]2(O)C(=O)COC(=O)CCC(=O)O [Hydrocortisone 21-hemisuccinate sodium] | 0.154 |
| Cc1ccc(C(=O)Nc2ccc(CN3CCN(C)CC3)c(C(F)(F)F)c2)cc1C#Cc1cnc2cccnn12 | -0.00193 |
| O=C1CCC(c2ccc(-n3ccnc3)cc2)=NN1 [Imazodan] | -0.135 |
| CCNC(=O)N1CCN(CCCC(c2ccc(F)cc2)c2ccc(F)cc2)CC1 [Amperozide hydrochloride] | -0.113 |
| Fc1ccc(C(OCCCc2cnc[nH]2)c2ccc(F)cc2)cc1 | 0.0756 |
| CC(=O)c1ccc(S(=O)(=O)NC(=O)NC2CCCCC2)cc1 [Acetohexamide] | 0.0291 |
| CCSC(=N)N [S-Ethylisothiourea hydrobromide] | 0.0819 |
| Nc1ncn([C@@H]2O[C@H](CO)[C@@H](O)[C@H]2O)c(=O)n1 [Azacitidine (Vidaza)] | 0.0568 |
| Nc1ncn([C@@H]2O[C@H](CO)[C@@H](O)[C@H]2O)c(=O)n1 [5-azacytidine] | -0.0155 |
| CC(COc1ccccc1)N(CCCl)Cc1ccccc1 (stereo not given) [Phenoxybenzamine hydrochloride] | -0.0777 |
| CCCNC(C)C(=O)Nc1ccccc1C (stereo not given) [Prilocaine hydrochloride] | 0.0331 |
| CNc1ncnc2c1ncn2[C@H]1C[C@H](OP(=O)(O)O)[C@@H](COP(=O)(O)O)O1 | -0.0733 |

Four entries from above, reformatted.
CCNC(=O)N1CCN(CCCC(c2ccc(F)cc2)c2ccc(F)cc2)CC1 [Amperozide hydrochloride]
  S-phase gammaH2AX median (Z-score): -0.113
Fc1ccc(C(OCCCc2cnc[nH]2)c2ccc(F)cc2)cc1
  S-phase gammaH2AX median (Z-score): 0.0756
CC(=O)c1ccc(S(=O)(=O)NC(=O)NC2CCCCC2)cc1 [Acetohexamide]
  S-phase gammaH2AX median (Z-score): 0.0291
CCSC(=N)N [S-Ethylisothiourea hydrobromide]
  S-phase gammaH2AX median (Z-score): 0.0819
